The supplement of paper PMC10849652
This is one part of the list.

The chains behind the UniProt entries cited, without tags or fusion partners. Where a name states a change or a piece, a line headed by the entry shows the natural chain unless it says otherwise.
UniProt O00273: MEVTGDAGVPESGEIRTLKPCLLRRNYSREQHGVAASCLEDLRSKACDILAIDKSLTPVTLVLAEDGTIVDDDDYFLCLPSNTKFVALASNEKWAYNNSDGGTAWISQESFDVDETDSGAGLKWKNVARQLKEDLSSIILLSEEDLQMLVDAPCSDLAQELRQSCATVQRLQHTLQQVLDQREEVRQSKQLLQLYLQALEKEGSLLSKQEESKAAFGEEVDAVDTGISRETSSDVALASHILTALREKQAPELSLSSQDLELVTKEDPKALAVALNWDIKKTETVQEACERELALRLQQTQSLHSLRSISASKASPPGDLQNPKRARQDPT
UniProt Q9Y394: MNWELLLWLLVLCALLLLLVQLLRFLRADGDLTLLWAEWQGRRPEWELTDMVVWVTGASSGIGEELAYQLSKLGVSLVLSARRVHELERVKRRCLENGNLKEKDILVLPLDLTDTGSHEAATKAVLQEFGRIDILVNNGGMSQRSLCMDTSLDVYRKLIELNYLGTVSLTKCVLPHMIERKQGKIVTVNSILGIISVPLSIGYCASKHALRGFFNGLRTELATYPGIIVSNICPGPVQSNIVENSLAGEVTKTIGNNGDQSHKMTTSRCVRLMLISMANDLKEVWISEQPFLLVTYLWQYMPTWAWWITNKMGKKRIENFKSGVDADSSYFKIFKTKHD
UniProt Q9NVR5: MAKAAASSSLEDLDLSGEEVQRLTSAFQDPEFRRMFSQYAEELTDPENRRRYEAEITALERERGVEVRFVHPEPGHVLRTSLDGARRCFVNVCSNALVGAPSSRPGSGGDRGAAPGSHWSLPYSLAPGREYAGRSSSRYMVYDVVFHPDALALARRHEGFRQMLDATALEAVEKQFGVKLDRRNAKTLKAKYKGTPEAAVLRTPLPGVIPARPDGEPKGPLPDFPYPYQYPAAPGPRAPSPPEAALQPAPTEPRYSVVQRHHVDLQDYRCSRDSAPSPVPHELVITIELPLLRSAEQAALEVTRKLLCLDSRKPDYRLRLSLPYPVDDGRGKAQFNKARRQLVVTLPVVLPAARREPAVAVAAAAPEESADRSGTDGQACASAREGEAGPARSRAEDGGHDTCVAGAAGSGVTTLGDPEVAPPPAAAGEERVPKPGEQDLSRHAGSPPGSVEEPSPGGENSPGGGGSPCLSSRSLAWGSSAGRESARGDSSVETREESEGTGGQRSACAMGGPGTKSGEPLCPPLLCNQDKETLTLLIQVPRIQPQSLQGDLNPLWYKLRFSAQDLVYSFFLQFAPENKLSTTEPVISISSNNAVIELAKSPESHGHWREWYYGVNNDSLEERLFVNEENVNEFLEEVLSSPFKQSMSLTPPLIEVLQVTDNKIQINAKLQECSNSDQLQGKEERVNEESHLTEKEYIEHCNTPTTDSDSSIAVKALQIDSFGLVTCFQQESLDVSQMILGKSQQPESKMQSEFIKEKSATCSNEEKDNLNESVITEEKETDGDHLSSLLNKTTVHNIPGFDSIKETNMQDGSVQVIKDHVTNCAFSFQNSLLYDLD
UniProt Q6P158: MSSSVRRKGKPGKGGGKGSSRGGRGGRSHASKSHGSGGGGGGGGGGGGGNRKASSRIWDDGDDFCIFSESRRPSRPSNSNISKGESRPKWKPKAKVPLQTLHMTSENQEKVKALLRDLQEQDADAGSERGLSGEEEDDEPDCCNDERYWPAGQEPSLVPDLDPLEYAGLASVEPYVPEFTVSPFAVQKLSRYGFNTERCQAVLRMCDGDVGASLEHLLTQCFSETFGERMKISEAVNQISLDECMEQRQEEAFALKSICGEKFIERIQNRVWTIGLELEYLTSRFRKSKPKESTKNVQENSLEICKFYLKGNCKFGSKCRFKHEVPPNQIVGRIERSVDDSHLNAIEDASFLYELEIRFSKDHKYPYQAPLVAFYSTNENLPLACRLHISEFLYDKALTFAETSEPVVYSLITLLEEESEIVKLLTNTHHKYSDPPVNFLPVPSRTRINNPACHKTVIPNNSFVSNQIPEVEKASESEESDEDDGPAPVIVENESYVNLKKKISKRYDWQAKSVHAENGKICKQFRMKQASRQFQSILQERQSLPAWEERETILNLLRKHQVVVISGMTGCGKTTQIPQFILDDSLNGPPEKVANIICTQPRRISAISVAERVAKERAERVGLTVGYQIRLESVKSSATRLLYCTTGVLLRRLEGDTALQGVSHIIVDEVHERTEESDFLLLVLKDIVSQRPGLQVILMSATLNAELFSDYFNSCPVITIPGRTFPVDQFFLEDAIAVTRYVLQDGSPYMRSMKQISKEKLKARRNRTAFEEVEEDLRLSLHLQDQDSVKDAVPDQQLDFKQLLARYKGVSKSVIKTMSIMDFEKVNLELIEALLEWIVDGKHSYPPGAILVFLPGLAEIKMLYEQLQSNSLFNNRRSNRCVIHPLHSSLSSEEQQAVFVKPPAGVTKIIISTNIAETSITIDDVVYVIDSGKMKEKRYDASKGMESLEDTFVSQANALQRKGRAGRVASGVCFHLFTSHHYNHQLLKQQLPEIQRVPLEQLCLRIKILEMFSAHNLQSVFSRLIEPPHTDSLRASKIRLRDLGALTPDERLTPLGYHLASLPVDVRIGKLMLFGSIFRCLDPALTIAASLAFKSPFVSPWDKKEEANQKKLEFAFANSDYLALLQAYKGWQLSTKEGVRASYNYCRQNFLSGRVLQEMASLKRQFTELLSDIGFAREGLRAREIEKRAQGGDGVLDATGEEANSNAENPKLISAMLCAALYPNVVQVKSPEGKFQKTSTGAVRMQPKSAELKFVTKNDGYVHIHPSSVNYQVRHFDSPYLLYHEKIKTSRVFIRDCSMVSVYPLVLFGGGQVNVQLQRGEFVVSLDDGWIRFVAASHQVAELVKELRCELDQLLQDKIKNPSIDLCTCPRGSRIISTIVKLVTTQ
UniProt Q8NDZ4: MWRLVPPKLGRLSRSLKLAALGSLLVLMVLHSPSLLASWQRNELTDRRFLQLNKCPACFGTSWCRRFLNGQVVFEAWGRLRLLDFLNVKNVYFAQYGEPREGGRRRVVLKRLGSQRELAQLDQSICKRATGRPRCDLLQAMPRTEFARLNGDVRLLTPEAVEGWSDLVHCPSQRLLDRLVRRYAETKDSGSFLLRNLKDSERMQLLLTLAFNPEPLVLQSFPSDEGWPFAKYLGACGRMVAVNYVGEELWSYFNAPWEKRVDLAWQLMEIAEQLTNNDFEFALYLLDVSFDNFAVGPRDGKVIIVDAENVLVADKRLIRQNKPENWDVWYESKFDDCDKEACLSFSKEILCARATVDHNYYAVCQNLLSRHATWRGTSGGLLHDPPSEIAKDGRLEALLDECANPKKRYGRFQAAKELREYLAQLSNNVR
UniProt Q92466: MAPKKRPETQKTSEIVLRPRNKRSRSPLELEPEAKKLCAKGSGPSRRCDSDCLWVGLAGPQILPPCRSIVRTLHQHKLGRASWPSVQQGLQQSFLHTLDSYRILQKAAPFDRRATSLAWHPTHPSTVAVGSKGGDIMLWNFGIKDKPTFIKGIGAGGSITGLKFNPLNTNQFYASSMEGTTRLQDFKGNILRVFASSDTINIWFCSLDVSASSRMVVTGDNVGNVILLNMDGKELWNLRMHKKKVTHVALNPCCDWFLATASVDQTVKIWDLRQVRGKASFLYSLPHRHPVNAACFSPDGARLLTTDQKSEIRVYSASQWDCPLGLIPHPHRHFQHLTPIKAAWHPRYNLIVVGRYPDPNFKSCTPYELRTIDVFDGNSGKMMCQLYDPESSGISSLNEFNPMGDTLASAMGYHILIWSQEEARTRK
UniProt Q08495: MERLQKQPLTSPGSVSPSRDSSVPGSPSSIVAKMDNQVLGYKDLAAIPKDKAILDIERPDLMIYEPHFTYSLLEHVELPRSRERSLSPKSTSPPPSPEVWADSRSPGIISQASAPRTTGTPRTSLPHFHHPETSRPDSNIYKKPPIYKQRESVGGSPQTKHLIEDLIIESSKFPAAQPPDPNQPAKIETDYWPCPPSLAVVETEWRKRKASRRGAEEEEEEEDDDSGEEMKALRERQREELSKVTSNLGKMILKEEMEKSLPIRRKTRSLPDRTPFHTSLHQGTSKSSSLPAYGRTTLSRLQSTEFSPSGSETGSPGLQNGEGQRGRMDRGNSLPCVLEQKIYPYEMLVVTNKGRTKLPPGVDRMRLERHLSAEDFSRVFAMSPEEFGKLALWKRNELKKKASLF
UniProt Q9NUU7: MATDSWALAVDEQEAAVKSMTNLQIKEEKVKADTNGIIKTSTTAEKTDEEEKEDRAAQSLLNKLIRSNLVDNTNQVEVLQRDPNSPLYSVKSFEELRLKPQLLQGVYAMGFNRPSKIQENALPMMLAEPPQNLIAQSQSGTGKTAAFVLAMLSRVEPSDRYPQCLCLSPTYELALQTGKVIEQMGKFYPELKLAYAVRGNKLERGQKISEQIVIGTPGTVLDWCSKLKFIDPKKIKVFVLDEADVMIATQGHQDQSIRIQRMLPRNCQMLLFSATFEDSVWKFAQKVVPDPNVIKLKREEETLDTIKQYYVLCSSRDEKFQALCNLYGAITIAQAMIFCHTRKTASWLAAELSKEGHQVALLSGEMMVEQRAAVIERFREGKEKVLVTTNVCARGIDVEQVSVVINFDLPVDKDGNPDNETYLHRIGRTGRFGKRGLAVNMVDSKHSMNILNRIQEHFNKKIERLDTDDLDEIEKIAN
UniProt Q8WYQ5: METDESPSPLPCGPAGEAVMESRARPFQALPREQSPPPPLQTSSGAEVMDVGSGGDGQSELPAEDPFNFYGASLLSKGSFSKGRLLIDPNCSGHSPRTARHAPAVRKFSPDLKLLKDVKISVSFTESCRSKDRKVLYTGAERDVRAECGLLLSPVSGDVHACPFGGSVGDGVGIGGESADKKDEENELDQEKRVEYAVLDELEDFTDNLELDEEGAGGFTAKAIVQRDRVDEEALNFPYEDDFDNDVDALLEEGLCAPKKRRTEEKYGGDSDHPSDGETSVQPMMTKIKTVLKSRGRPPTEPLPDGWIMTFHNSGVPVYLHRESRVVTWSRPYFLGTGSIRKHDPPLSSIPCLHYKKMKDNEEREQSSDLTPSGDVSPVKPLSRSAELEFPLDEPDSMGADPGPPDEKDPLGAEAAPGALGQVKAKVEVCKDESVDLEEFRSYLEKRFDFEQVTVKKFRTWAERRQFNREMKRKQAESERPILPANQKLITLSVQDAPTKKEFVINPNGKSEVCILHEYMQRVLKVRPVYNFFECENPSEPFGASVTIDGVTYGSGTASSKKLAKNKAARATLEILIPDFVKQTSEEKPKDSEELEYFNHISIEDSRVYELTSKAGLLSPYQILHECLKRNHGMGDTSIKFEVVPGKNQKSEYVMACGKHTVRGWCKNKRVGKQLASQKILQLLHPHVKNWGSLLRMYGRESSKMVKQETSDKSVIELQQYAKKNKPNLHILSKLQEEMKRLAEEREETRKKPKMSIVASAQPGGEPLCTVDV
UniProt Q92796: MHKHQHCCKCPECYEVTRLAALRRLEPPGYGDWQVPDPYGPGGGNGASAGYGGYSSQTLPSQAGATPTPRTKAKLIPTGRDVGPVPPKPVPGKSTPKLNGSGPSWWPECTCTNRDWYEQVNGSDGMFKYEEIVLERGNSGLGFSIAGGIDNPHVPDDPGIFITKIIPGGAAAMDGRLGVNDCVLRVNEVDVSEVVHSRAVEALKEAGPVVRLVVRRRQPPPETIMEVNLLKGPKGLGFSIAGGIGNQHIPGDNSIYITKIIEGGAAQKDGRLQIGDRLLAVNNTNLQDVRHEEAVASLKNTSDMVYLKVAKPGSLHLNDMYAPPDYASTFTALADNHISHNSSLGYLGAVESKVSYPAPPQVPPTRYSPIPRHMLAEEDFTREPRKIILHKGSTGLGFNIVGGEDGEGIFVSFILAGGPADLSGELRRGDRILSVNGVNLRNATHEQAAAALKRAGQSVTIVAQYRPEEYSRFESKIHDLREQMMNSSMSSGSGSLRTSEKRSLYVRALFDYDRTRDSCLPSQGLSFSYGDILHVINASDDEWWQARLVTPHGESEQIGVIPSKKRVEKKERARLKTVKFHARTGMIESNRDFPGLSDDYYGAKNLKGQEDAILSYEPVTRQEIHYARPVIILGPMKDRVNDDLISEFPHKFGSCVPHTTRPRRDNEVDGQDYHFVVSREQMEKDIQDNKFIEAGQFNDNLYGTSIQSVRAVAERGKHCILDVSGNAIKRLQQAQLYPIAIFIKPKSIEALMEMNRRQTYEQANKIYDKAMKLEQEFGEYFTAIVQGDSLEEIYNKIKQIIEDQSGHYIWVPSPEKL
UniProt O15121: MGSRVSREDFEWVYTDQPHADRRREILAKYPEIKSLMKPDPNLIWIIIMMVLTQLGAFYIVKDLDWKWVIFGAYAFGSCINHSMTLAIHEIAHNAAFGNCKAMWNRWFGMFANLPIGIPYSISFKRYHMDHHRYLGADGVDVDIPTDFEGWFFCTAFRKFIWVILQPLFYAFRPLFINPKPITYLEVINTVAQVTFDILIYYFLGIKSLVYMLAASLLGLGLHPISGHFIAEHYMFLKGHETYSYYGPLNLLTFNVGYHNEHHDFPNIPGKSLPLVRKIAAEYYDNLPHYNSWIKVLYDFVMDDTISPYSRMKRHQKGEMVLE

Legend:
Assay in all cases: log2 fold change, soluble protein after heating vs DMSO (PISA); higher = thermal stabilisation; K562 cells, 10 uM, 30 min; active = over 0.2 and 3.5 SD of the protein, either way, in both replicates (recomputed)
[1] = compound: C1=CC=C(C=C1)[C@H](COC2=CC3=C(C=C2)NC(=O)N3)NC(=O)C4=CC=CN(C4=O)CC5=CC(=C(C=C5)F)F
In short: (§1)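 Thermal stability values are relative to control samples and come from duplicates. They are expressed as log2 fold changes. For measurement, K562 cells (2×10^6 cells/mL) received 10 μM compound for 30 min, and aliquots were heated for 3 min over 48°C-58°C, pooled, and extracted at 4°C in PBS with 0.5% NP-40. Soluble protein, the supernatant after 21,000xg for 90 min, was quantified by TMTpro 16plex LC-MS/MS with equalised channel sums.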

[2] = compound: CC1=C(SC2=C1C(=N[C@H](C3=NN=C(N32)C)CC(=O)N)C4=CC=C(C=C4)Cl)C
In short: as §1

[3] = compound: CC1=C2C(=CC=C1)N=C(N(C2=O)C3=CC=CC=C3C)CN4C=NC5=C(N=CN=C54)N
In short: as §1

[4] = compound: Cc1sc2c(c1C)C(c1ccc(Cl)cc1)=N[C@@H](CC(=O)OC(C)(C)C)c1nnc(C)n1-2
In short: as §1

[5] = compound: c1ccc([C@@H]2C[C@H]2NC2CCNCC2)cc1
In short: as §1

Measured: log2 fold change

DIS3L2 (UniProt Q8IYB7)
inactive: [1] -0.017 | [2] -0.026 | [3] 0.052 | [4] 0.04 | [5] 0.006

DHX16 (UniProt O60231)
inactive: [1] -0.024 | [2] 0.007 | [3] 0.059 | [4] -0.003 | [5] 0.017

DHRS4 (UniProt Q9BTZ2)
inactive: [1] 0.017 | [2] 0.014 | [3] 0.039 | [4] 0.005 | [5] -0.008

DFFA (UniProt O00273)
inactive: [1] -0.02 | [2] 0.017 | [3] 0.042 | [4] -0.031 | [5] 0.01

DICER1 (UniProt Q9UPY3)
inactive: [1] -0.042 | [2] 0.014 | [3] -0.03 | [4] 0.072 | [5] -0.013

DLAT (UniProt P10515)
inactive: [1] 0.124 | [2] -0.168 | [3] -0.098 | [4] -0.029 | [5] 0

DHODH (UniProt Q02127)
inactive: [1] 0.025 | [2] 0.014 | [3] 0.031 | [4] -0.001 | [5] 0.049

DHRS7 (UniProt Q9Y394)
inactive: [1] 0.046 | [2] 0.006 | [3] -0.005 | [4] -0.008 | [5] 0.026

DNAAF2 (UniProt Q9NVR5)
inactive: [1] 0.039 | [2] 0.02 | [3] -0.013 | [4] -0.003 | [5] 0.002

DGUOK (UniProt Q16854)
inactive: [1] 0.12 | [2] 0.054 | [3] 0.069 | [4] 0.034 | [5] 0.046

DDAH1 (UniProt O94760)
inactive: [1] -0.003 | [2] 0.127 | [3] 0.162 | [4] -0.161 | [5] 0.077

DECR1 (UniProt Q16698)
inactive: [1] -0.019 | [2] -0.003 | [3] 0.003 | [4] -0.023 | [5] -0.008

DHX57 (UniProt Q6P158)
inactive: [1] -0.024 | [2] -0.098 | [3] -0.165 | [4] 0.025 | [5] -0.012

DDI2 isoform 3 (UniProt Q5TDH0)
inactive: [1] 0.01 | [2] 0.052 | [3] 0.014 | [4] -0.014 | [5] -0.01

DIPK2A (UniProt Q8NDZ4)
inactive: [1] -0.109 | [2] 0.173 | [3] 0.056 | [4] 0.059 | [5] -0.036

DDB2 (UniProt Q92466)
inactive: [1] 0.035 | [2] -0.045 | [3] 0.031 | [4] 0.033 | [5] -0.027

DMTN (UniProt Q08495)
inactive: [1] -0.001 | [2] 0.035 | [3] -0.014 | [4] 0 | [5] -0.024

DDX19A (UniProt Q9NUU7)
inactive: [1] -0.017 | [2] 0.065 | [3] 0.037 | [4] -0.022 | [5] -0.036

DGCR8 (UniProt Q8WYQ5)
inactive: [1] 0.018 | [2] -0.132 | [3] -0.015 | [4] 0.208 | [5] -0.011

DLGAP4 (UniProt Q9Y2H0)
inactive: [1] 0.002 | [2] 0.045 | [3] 0.057 | [4] -0.013 | [5] 0.026

DIP2B (UniProt Q9P265)
inactive: [1] 0 | [2] 0.059 | [3] 0.012 | [4] -0.035 | [5] -0.003

DLG3 (UniProt Q92796)
inactive: [1] -0.065 | [2] -0.06 | [3] -0.094 | [4] 0.03 | [5] -0.005

Copied from above (two entries):
DIP2B (UniProt Q9P265)
inactive: [1] 0 | [2] 0.059 | [3] 0.012 | [4] -0.035 | [5] -0.003

DLG3 (UniProt Q92796)
inactive: [1] -0.065 | [2] -0.06 | [3] -0.094 | [4] 0.03 | [5] -0.005

Remaining list, next part

DHRS7B (UniProt Q6IAN0)
inactive: [1] 0.054 | [2] 0.032 | [3] -0.001 | [4] -0.018 | [5] -0.013

DHRS3 (UniProt O75911)
inactive: [1] 0.007 | [2] 0.068 | [3] 0.057 | [4] 0.017 | [5] -0.024

DEGS1 (UniProt O15121)
inactive: [1] 0.083 | [2] 0.04 | [3] -0.001 | [4] 0.122 | [5] 0.052
